Consider 1 substance from paper PMC11143278.

By UniProt entry, the sequences of proteins in these tests, tags left out.
UniProt P14902: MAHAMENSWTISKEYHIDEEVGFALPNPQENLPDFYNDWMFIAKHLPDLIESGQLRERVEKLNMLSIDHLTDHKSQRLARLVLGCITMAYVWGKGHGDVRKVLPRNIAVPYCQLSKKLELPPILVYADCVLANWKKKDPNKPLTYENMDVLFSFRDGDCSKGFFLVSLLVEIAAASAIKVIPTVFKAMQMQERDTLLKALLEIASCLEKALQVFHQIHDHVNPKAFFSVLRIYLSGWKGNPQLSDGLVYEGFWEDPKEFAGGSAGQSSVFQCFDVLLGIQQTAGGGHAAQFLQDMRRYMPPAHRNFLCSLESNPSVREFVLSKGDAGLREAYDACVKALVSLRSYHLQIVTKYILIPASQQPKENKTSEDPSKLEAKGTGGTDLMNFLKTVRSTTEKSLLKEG
UniProt O14543: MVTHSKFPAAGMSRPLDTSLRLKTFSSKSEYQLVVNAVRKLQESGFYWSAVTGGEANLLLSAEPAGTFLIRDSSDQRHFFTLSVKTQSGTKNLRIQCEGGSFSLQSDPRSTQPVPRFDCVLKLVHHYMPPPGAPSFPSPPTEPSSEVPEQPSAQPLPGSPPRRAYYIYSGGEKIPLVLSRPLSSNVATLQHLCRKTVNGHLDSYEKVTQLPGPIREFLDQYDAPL

No constants are given. Whether binding was seen depends on the method and setting. Binding seen in cells or lysates may run through a third protein. Some binding calls cover weakened binding; strength is not graded here.

In this experiment the target is indoleamine 2,3-dioxygenase (human (endogenous in human dMDSCs)) (UniProt P14902). Description: co-IP; RIPA lysate of purified human dMDSCs, uninfected or infected with T. gondii (24 h); anti-IDO antibody (5 µg/ml) or IgG as negative control, overnight at 4 °C, protein A/G-agarose beads; western blot for IDO and SOCS3.

For “suppressors of cytokine signaling 3 (from UniProt O14543 1-225)”, the binding result is “binds”.
